Here are results for three sequences from article PMC11245485.

In data set [1] the target is T1, GST-ONAC023 (Oryza sativa (rice)) (UniProt Q6H8A9).
T1 sequence (looked up): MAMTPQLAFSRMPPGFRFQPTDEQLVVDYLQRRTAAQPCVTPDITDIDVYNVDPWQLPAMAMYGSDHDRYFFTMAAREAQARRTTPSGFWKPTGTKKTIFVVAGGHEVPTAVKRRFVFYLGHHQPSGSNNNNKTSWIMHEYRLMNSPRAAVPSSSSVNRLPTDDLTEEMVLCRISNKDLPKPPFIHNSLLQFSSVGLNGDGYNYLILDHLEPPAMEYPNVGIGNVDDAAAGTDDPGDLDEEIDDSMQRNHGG
Description: competition EMSA. The settings on record: LightShift EMSA kit binding buffer (composition not given), room temperature, competitor 20 min then 1 µL of 10 µM FAM probe 20 min, 6% PAGE, 0.5x TBE, 4 °C, recombinant protein, residues 1-252, protein details: GST (N-terminal, pGEX-4T-1). For orientation: Mobility shift assays separate free from complexed probe on a gel.

The target in data set [2] is T1, GST-ONAC023 (Oryza sativa (rice)). Kind of data set: EMSA. The settings on record: LightShift EMSA kit binding buffer (composition not given), room temperature, competitor 20 min then 1 µL of 10 µM FAM probe 20 min; 6% PAGE, 0.5x TBE, 4 °C; recombinant protein; residues 1-252; protein details: GST (N-terminal, pGEX-4T-1); label: 5' 6-FAM on strand 1.

The exact form of at least one protein or probe is not confirmed. For part of these data: A weaker result is weaker than the reference pair of the same experiment. At least one verdict rests on a figure or table, not on a statement of the authors. Tags and fusion partners may be left off the protein sequences shown.

Take “GAATTCTTCCGGATTCACCGAGGAACGAGAGTTCCGGATTCACCGAGGAACGAGAGGAGCTC (double strand) [ONAC023-BS-mut4 competitor]”: the binding result in data set [1] (unlabelled competitor vs FAM probe N1, CACG stated more crucial than other regions) was “binds more weakly”. As to “GAATTCTTCCGGATTCACCGAGGCACGAGAGTTCCGGATTCACCGAGGCACGAGAGGAGCTC (double strand) [ONAC023-BS FAM probe]”, the binding result in data set [2] was “binds”.

For the sequence “GAATTCTTCCGGATTCACCGAGGCACGAGAGTTCCGGATTCACCGAGGCACGAGAGGAGCTC (double strand) [ONAC023-BS native competitor]”, in data set [1] (unlabelled competitor vs FAM probe N1), the binding result is “binds”.
